Laboratory results as given in publication PMC6055584.

T1: Days To Heading on chromosome 8 (DTH8), yeast two-hybrid fusion (rice (Oryza sativa)) (UniProt Q0J7P4)
T1 sequence: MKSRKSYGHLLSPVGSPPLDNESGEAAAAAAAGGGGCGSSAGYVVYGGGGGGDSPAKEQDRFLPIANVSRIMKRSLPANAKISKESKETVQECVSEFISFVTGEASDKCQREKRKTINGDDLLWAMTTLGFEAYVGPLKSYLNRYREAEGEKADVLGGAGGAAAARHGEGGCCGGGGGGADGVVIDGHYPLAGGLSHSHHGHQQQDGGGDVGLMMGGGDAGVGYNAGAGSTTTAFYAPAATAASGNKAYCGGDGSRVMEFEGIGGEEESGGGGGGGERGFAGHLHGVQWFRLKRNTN

T2: GST-tagged DTH8 (rice (Oryza sativa)) (UniProt Q0J7P4)
T2 sequence: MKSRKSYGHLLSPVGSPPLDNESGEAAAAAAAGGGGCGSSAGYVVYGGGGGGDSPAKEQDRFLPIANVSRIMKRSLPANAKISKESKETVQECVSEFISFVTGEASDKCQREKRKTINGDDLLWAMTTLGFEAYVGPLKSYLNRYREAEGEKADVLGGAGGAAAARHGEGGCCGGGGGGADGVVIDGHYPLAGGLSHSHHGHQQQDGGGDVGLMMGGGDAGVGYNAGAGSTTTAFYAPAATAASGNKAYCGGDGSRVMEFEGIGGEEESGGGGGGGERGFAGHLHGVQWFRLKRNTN


Legend:
[1] = molecular target: T1, Days To Heading on chromosome 8 (DTH8), yeast two-hybrid fusion (rice (Oryza sativa)); assay: two-hybrid; pairwise; pGBKT7 baits and pGADT7 preys co-transformed into S. cerevisiae AH109; growth on Synthetic Dropout/-Trp-Leu-His-Ade at 30°C
[2] = molecular target: T2, GST-tagged DTH8 (rice (Oryza sativa)); assay: pull-down; GST pull-down; E. coli BL21 lysates of the two proteins mixed in 25 mM Tris-HCl pH 7.5, 150 mM NaCl, 1 mM DTT, glutathione agarose beads overnight at 4°C; washes with 1% Triton X100 and 0.1% SDS; blots with anti-GST and anti-MBP
[3] = molecular target: Heading date 1 (Hd1), yeast two-hybrid fusion (rice (Oryza sativa)); assay: two-hybrid; pairwise; pGBKT7 baits and pGADT7 preys co-transformed into S. cerevisiae AH109; growth on Synthetic Dropout/-Trp-Leu-His-Ade at 30°C
[4] = molecular target: Heme Activator Protein like 1 (OsHAPL1), yeast two-hybrid fusion (rice (Oryza sativa)); assay: as above
[5] = molecular target: Hd1(ΔCCT) fused with the GAL4 DNA binding domain (rice (Oryza sativa)); assay: as above
[6] = molecular target: OsHAPL1-H (OsHAPL1 with the HAP domain only) (rice (Oryza sativa)); assay: as above
[7] = molecular target: OsHAPL1-ΔH (OsHAPL1 with the HAP domain deleted) (rice (Oryza sativa)); assay: as above
[8] = molecular target: pSPYCE(M)-OsHAPL1 (BiFC fusion) (rice (Oryza sativa)); assay: split reporter; BiFC; YFPC (pSPYCE(M)) and YFPN (pSPYNE173) fusions, Agrobacterium GV3101 infiltration of N. benthamiana leaves, imaged 3 days after infiltration
[9] = molecular target: Heme Activator Protein like 1 (OsHAPL1), yeast two-hybrid fusion (rice (Oryza sativa)); assay: two-hybrid; library screen in yeast strain AH109; bait pGBKT7-OsHAPL1 (GAL4 DNA binding domain fusion), prey a rice GAL4 activation fusion library

Row | binding [1] | Molecule | other results
1 | binds | HAP2B (rice (Oryza sativa)) | –
2 | binds | HAP2E (rice (Oryza sativa)) | –
3 | binds | HAP2G (rice (Oryza sativa)) | –
4 | binds | HAP2H (rice (Oryza sativa)) | –
5 | binds | HAP2I (rice (Oryza sativa)) | –
6 | binds | HAP2J (rice (Oryza sativa)) | –
7 | binds | HAP3D (rice (Oryza sativa)) | –
8 | binds | HAP3E (rice (Oryza sativa)) | –
9 | binds | HAP3F (rice (Oryza sativa)) | –
10 | binds | HAP3J (rice (Oryza sativa)) | –
11 | binds | HAP3K (rice (Oryza sativa)) | –
12 | binds | HAP5A (rice (Oryza sativa)) | –
13 | binds | HAP5B (rice (Oryza sativa)) | –
14 | binds | HAP5D (rice (Oryza sativa)) | –
15 | binds | HAP5G (rice (Oryza sativa)) | –
16 | binds | Heading date 1 (Hd1), yeast two-hybrid fusion (rice (Oryza sativa)) | –
17 | – | MBP-tagged OsHAPL1 (rice (Oryza sativa)) | binding [2]: binds
18 | no binding | TATA-Binding Protein (TBP) | –
19 | – | TFIIB (protein, UniProt Q8W0W3 1-312) MSDSFCPDCKKHTEVAFDHSAGDTVCTECGLVLEAHSVDETSEWRTFANESSDNDPVRVGGPTNPLLTDGGLSTVIAKPNGAQGEFLSSSLGRWQNRGSNPDRSLILAFRTIANMADRLGLVATIKDRANEIYKKVEDLKSIRGRNQDAILAACLYIACRQEDRPRTVKEICSVANGATKKEIGRAKEFIVKQLEVEMGQSMEMGTIHAGDFLRRFCSTLGMNNQAVKAAQEAVQRSEELDIRRSPISIAAAVIYMITQLSDDKKPLKDISLATGVAEGTIRNSYKDLYPYASRLIPNTYAKEEDLKNLCTP | binding [3]: no binding; binding [4]: no binding
20 | – | HAP3B (protein, UniProt Q60EQ4 1-185) MADGPGSPGGGGGSHESGSPRGGGGGGGGGGGGGGVREQDRFLPIANISRIMKKAIPANGKIAKDAKETVQECVSEFISFITSEASDKCQREKRKTINGDDLLWAMATLGFEDYIEPLKVYLQKYREMEGDSKLTAKAGDGSVKKDVLGSHGGSSSSAQGMGQQAAYNQGMGYMQPQYHNGDVSN | binding [5]: binds
21 | – | HAP3A (protein, UniProt Q5QMG3 1-178) MMMMDLGFLEGGAGMADAGHDESGSPPRSGGVREQDRFLPIANISRIMKKAVPANGKIAKDAKETLQECVSEFISFVTSEASDKCQKEKRKTINGEDLLFAMGTLGFEEYVDPLKIYLHKYREVIGDSKLSSKAGDGSVKKDTIGPHSGASSSSAQGMVGAYTQGMGYMQPQYHNGDT | binding [4]: binds; binding [5]: binds
22 | – | Days To Heading on chromosome 8 (DTH8), yeast two-hybrid fusion (protein, UniProt Q0J7P4 1-297) MKSRKSYGHLLSPVGSPPLDNESGEAAAAAAAGGGGCGSSAGYVVYGGGGGGDSPAKEQDRFLPIANVSRIMKRSLPANAKISKESKETVQECVSEFISFVTGEASDKCQREKRKTINGDDLLWAMTTLGFEAYVGPLKSYLNRYREAEGEKADVLGGAGGAAAARHGEGGCCGGGGGGADGVVIDGHYPLAGGLSHSHHGHQQQDGGGDVGLMMGGGDAGVGYNAGAGSTTTAFYAPAATAASGNKAYCGGDGSRVMEFEGIGGEEESGGGGGGGERGFAGHLHGVQWFRLKRNTN | binding [6]: binds; binding [4]: binds; binding [7]: no binding; binding [5]: binds
23 | – | pSPYNE173-DTH8 (BiFC fusion) (protein, UniProt Q0J7P4 1-297) MKSRKSYGHLLSPVGSPPLDNESGEAAAAAAAGGGGCGSSAGYVVYGGGGGGDSPAKEQDRFLPIANVSRIMKRSLPANAKISKESKETVQECVSEFISFVTGEASDKCQREKRKTINGDDLLWAMTTLGFEAYVGPLKSYLNRYREAEGEKADVLGGAGGAAAARHGEGGCCGGGGGGADGVVIDGHYPLAGGLSHSHHGHQQQDGGGDVGLMMGGGDAGVGYNAGAGSTTTAFYAPAATAASGNKAYCGGDGSRVMEFEGIGGEEESGGGGGGGERGFAGHLHGVQWFRLKRNTN | binding [8]: binds
24 | – | DTH8-Ghd8-OsHAP3H residues 3-125 (library prey clone) (domain or fragment, UniProt Q0J7P4 3-125) SRKSYGHLLSPVGSPPLDNESGEAAAAAAAGGGGCGSSAGYVVYGGGGGGDSPAKEQDRFLPIANVSRIMKRSLPANAKISKESKETVQECVSEFISFVTGEASDKCQREKRKTINGDDLLWA | binding [9]: binds

Results are given in words; binding and its absence hold for the method and conditions named. For some assays here: Binding calls can cover weak binding; strength is not graded here. For some assays here: Where a sequence is shown, tags or fusion partners need not be part of it. For some assays here: In cells and extracts the contact can be indirect.
